From patent publication US20150366884A1, “COMPOSITIONS AND METHODS FOR CANCER THERAPY” (UNIVERSITY OF IOWA RESEARCH FOUNDATION, priority 2013, published 2015)
For at least one compound, name, drawing or mass did not settle the structure.

Tested on: melanoma tumor
Assay: Treatment of melanoma tumor bearing animals
Format: in vivo

In the case of `CCCCCCCCCC[P+](c1ccccc1)(c1ccccc1)c1ccccc1` [decyl-TPP, decyltriphenylphosphonium], the tumor growth is reported as “slowed tumor growth”.
